{"sequences": {"note": "The chains behind the UniProt entries cited, without tags or fusion partners. Where a name states a change or a piece, a line headed by the entry shows the natural chain unless it says otherwise.", "UniProt O46036": "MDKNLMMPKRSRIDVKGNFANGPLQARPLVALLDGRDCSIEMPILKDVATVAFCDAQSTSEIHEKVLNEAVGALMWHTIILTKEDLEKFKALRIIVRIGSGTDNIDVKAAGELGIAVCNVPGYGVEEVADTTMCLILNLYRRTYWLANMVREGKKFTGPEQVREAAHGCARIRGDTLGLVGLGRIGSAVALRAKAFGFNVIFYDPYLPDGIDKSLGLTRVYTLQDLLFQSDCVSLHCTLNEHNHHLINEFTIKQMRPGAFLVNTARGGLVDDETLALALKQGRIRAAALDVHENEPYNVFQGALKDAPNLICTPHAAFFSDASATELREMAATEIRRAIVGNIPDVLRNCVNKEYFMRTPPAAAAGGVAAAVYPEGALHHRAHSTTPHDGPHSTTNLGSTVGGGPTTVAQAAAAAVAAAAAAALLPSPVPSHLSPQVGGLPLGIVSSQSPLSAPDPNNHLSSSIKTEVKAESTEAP", "UniProt Q8IRG6": "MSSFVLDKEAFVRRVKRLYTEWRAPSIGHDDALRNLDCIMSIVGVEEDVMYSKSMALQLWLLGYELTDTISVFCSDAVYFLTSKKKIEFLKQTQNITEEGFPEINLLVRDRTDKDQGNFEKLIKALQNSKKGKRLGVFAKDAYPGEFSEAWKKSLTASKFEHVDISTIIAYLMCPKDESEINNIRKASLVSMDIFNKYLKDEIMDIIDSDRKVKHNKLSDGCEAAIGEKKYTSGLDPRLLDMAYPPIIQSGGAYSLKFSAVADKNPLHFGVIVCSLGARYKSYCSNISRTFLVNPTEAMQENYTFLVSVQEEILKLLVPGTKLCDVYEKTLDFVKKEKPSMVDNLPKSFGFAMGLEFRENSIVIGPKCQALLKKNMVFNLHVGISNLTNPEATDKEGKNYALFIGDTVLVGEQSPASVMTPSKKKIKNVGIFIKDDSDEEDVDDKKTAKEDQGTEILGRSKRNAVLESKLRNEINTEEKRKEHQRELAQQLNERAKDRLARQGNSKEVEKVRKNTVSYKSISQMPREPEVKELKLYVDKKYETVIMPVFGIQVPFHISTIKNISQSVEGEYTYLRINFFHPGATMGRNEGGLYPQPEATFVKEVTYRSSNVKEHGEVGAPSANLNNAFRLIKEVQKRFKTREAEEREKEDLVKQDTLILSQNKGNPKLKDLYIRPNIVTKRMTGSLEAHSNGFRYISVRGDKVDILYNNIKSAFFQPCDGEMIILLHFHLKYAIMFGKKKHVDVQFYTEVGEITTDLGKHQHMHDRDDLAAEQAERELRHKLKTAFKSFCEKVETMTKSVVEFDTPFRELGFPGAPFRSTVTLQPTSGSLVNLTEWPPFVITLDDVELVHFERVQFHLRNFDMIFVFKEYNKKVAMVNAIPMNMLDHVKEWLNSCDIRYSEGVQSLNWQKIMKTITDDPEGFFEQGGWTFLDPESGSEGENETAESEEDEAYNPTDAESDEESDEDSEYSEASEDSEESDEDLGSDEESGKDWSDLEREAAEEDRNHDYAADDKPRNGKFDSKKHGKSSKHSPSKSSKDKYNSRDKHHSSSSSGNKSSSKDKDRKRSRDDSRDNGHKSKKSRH", "UniProt Q9VMJ7": "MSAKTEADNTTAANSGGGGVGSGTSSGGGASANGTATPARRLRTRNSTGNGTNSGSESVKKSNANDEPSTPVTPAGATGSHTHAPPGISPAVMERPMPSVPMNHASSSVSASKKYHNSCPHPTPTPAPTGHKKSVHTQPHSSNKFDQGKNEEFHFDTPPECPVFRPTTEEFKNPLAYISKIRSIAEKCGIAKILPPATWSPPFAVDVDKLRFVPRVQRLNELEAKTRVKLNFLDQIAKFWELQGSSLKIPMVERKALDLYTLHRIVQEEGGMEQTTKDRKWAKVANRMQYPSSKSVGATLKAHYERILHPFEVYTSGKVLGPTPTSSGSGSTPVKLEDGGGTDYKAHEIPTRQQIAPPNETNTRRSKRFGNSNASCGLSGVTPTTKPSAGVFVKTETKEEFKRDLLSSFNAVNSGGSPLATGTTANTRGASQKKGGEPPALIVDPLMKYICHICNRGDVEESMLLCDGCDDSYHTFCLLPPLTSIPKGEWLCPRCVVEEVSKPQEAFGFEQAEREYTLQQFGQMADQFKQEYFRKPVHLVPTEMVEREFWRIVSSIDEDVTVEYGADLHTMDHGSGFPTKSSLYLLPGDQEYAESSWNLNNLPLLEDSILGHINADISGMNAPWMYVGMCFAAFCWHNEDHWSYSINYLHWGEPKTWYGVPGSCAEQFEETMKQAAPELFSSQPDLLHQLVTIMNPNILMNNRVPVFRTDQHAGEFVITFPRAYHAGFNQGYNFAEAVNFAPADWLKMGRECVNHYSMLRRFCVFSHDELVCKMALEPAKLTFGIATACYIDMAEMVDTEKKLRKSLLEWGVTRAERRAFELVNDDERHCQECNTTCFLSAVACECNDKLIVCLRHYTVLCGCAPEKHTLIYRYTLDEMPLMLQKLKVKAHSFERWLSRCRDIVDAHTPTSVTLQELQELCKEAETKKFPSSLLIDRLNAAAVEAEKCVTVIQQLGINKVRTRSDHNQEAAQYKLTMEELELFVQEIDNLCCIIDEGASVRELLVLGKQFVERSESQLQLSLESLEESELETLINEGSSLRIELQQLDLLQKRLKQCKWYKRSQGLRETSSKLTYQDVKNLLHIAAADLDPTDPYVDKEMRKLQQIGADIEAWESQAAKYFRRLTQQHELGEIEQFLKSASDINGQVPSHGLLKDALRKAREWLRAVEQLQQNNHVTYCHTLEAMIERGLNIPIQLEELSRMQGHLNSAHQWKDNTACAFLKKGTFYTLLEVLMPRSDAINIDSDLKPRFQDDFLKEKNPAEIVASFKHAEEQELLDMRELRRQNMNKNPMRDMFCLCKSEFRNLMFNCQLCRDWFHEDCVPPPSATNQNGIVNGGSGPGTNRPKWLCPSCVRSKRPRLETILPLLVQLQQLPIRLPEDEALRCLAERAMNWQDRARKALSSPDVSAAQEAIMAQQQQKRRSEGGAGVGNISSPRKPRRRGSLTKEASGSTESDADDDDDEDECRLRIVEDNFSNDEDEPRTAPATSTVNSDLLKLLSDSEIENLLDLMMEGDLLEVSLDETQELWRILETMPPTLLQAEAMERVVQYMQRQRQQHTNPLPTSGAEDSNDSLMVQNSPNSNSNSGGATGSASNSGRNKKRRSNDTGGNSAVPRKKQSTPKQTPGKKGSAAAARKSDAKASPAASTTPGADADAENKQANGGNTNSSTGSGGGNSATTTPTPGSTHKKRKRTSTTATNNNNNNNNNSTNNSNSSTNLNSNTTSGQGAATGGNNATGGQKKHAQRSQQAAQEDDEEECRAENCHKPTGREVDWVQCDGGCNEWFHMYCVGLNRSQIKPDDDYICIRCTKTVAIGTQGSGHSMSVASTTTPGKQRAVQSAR", "UniProt Q9VM62": "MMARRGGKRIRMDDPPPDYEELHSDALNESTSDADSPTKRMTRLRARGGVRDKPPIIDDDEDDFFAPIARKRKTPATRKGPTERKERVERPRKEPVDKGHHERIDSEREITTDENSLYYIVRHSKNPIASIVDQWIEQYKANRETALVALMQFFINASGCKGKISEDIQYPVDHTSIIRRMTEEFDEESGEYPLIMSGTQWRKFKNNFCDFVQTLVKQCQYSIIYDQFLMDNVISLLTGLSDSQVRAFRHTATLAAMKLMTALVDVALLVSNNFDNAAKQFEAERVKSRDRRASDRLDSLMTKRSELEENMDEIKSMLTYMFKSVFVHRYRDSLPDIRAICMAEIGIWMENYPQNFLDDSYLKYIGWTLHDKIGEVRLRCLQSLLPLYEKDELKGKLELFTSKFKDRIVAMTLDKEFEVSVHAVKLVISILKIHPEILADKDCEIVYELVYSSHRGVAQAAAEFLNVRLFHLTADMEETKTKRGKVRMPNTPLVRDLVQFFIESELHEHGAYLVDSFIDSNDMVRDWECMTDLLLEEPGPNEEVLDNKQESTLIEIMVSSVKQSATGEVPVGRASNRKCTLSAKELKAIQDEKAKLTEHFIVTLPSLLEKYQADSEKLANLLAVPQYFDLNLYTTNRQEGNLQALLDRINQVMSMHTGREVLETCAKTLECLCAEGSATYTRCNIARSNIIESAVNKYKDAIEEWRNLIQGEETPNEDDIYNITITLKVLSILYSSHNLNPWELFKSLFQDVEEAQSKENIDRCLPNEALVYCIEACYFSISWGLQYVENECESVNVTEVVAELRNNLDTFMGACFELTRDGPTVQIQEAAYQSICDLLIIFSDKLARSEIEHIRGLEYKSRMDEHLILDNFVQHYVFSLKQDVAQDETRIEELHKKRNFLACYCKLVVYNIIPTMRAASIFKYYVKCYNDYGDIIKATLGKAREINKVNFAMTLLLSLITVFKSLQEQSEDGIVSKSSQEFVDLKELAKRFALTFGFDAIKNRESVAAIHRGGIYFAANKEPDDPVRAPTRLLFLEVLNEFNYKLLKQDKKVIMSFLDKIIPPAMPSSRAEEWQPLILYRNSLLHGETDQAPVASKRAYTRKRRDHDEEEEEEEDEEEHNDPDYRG", "UniProt Q9VWF2": "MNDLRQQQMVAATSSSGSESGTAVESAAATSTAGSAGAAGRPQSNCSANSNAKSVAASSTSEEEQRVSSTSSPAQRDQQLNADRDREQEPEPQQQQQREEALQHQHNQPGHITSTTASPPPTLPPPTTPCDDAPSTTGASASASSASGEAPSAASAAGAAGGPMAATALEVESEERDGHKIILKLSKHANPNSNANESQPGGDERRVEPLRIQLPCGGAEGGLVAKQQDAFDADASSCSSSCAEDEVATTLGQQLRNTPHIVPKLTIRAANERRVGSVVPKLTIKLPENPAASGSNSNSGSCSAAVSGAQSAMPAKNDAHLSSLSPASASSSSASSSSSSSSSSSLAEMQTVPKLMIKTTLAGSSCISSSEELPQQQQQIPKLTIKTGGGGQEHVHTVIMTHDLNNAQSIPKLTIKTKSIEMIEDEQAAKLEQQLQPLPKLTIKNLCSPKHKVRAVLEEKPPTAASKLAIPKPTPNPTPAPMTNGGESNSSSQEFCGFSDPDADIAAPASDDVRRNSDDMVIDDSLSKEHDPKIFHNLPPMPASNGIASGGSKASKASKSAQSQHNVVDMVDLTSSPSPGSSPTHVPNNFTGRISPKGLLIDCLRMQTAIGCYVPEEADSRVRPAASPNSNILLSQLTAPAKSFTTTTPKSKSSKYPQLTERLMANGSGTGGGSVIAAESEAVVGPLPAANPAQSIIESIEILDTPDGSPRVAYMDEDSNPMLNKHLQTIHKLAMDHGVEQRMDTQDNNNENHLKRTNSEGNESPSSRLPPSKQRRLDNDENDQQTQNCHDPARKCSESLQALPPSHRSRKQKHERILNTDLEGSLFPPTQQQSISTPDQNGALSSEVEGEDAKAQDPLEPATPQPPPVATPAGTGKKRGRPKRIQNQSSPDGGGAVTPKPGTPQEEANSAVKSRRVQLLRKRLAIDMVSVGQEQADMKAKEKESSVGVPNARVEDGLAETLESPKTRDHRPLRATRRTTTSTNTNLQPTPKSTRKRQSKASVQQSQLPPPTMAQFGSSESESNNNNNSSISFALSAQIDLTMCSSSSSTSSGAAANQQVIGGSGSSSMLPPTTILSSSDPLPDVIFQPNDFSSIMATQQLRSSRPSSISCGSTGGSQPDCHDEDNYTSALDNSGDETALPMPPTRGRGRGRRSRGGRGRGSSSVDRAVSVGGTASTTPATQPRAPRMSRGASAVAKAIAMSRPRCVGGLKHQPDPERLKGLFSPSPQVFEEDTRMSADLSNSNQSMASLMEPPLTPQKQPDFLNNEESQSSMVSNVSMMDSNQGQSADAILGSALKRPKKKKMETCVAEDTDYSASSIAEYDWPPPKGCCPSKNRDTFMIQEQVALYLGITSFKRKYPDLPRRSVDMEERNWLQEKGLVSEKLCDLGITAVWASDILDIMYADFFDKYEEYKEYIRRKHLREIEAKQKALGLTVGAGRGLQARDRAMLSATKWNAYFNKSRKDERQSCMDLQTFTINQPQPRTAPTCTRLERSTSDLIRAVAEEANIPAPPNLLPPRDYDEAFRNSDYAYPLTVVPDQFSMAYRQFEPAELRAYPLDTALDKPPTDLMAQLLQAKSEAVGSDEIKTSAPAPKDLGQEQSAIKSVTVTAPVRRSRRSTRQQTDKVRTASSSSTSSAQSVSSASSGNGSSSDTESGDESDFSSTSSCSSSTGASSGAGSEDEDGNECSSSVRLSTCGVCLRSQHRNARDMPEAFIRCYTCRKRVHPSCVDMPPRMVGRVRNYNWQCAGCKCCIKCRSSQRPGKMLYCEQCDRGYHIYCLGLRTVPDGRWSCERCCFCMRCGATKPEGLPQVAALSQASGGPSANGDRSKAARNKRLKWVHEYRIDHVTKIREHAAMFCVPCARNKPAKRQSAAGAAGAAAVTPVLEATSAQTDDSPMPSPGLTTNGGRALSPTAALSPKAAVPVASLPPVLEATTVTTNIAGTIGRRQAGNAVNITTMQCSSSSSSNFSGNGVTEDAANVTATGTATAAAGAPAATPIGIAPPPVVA"}, "source": "paper PMC5351981", "molecules": {"B1": {"name": "NURF-38 (protein, UniProt O77460 1-338)", "chain": "MLAKITRSSFYASRAVGRLSGSIPTSPAALASNCRYIQIERKRTKSHEMALYETVEKGAKNSPSYSLYFKNKCGNVISPMHDIPLYANEEKTIYNMVVEVPRWTNAKMEISLKTPMNPIKQDIKKGKLRFVANCFPHKGYIWNYGALPQTWENPDHIEPSTGCKGDNDPIDVIEIGYRVAKRGDVLKVKVLGTIALIDEGETDWKIIAIDVNDPLASKVNDIADVDQYFPGLLRATVEWFKIYKIPDGKPENQFAFNGDAKNADFANTIIAETHKFWQNLVHQSPASGSISTTNITNRNSEHVIPKEEAEKILAEAPDGGQVEEVSDTVDTWHFIHLK"}, "B2": {"name": "Su(z)12 (protein, UniProt Q9NJG9 1-900)", "chain": "MAPAKKREKDSNPDGSAANGIIGLTHGAPDASNAGSTVPPTAEGQVKLNGHQQEQELFLQAFEKPTQIYRYLRNRHETNPIFLNRTLSYMKERMSRNNKKRISFQVNSMLESITQKSEAVSQNYLHVIYDSLHEKLPARLDNESGEDLLQEQLLCEAGESVSVETTLYKITRSKRKDSTLDFQELLSKCSQIVYNPKDRVGEHATISIPLQTMRPMGEQHTLYKLLFRIKVLSPSTCNDENAETPPNKRSRPNEKMFGSELILYEKSSGFITEGEYEAMLQPLNSTSIKSFSPKKCTWETMPDSYIPLSLTYDVYQQSPMLKFHLTLSNEQLPEMISAPELQRYVQHLDAVAEMNYNNNNYNNNNNCSGLKNGSGGGNSTVCKTTPEHIQIVYNFMYSNNTRQQTEYTQELNCPWCGLDCLRLYALLKHLKLCHARFNFTYQPAGSGARIDVTINDAYDGSYAGSPYDLAGPSGSSFARTCGPVRRTSVTSLMVCRPRRQKTCLDEFLELDEDEISNQRSYITGHNRLYHHTETCLPVHPKELDIDSEGESDPLWLRQKTIQMIDEFSDVNEGEKELMKLWNLHVMRHGFVGDCQLPIACEMFLDAKGTEIVRKNLYRNFILHMCSLFDYGLIAAETVYKTVQKLQGLLSKYAAGQELMQRQREEQLKYWLDVGMHKKQEDPKTLKSPQKPAPPADQASTSSASTSGSGSGSSSMQPPKRMPAHLKRGSAASSPGVQSKGTENGTNGSNSSSSNSKNVAKKSADQPLSTLANTRERRSEYGQKRNVSGSRLAATPASKRKLSSKDNTVLNKRQRYSDGSPGTGIGNGHGGGSGSGANRNKSNNHSLPATSNNASSSSSNSKRAIARRRSTSERTKASGSTGGGAGGVRTRLSVPAKYERR"}, "B3": {"name": "Sfmbt (protein, UniProt Q9VK33 1-1220)", "chain": "MNPSELRMMWMSSQYNSERITLEDAATLLGHPTVGLSVMEDLSAHQPTLDMNPMMSLMGGDFTGQAAATAAALGVQPGTLIATNSNNLYGFAHMGGLQQQLLQQSAAAAVFQNYAEAMDNDVENGMVGMAMEAVVDDDDQVYGQRDNNFDDNGSELEPKQEIINIDDFVMMNEDNNSYDGTDFMTSSDKDISQSSSSCMAQMPGSLGVPGVEHDLLVPLPDGLLHHKLLGTTLVPAMGTLNGNAFGNIMVSTENTSSKQMQRTYSTAKGANSTATTATCSASTSSALRSQRKTRKIEPVNRPGLVLKTPIAYRGNIDPSVIPIQKDGMAVCKRCGAIGVKHTFYTKSRRFCSMACARGELYSLVLNTKMEGDQATTSSPDPGAGSESADLPGDQQQSQSDIELDLHAAHIKNANYRFRITDQSKITQLNSFGEPMSMGGDAAANNVQMAADETIAALNGGAVGDATAPGSTEEGASTPNSYLSAAPTPKALRLFKDIYPQDDLPQIPKYERLPVPCPQMEKIISIRRRMYDPTHSYDWLPRLSKENFNAAPVTCFPHAPGCEVWDNLGVGMKVEVENTDCDSIEVIQPGQTPTSFWVATILEIKGYKALMSYEGFDTDSHDFWVNLCNAEVHSVGWCATRGKPLIPPRTIEHKYKDWKDFLVGRLSGARTLPSNFYNKINDSLQSRFRLGLNLECVDKDRISQVRLATVTKIVGKRLFLRYFDSDDGFWCHEDSPIIHPVGWATTVGHNLAAPQDYLERMLAGREAMIEVHEDDATIELFKMNFTFDEYYSDGKTNSFVEGMKLEAVDPLNLSSICPATVMAVLKFGYMMIRIDSYQPDASGSDWFCYHEKSPCIFPAGFCSVNNISVTPPNGYDSRTFTWEGYLRDTGAVAAGQHLFHRIIPDHGFEVGMSLECADLMDPRLVCVATVARVVGRLLKVHFDGWTDEYDQWLDCESADIYPVGWCVLVNHKLEGPPRVAHQQAPKPAPKPKIQRKRKPKKGAAGGKTPTDNNTQSVKSRTIALKTTPHLPKLSIKLELKPEHHNAAFYENNQPEEEGDEEDPDADGDGDGSTSHISEQSTTQSSSDLIAGSGSGSGSASLVTLATGSNKTNSSATNNKYIPRLADIDSSEPHLELVPDTWNVYDVSQFLRVNDCTAHCDTFSRNKIDGKRLLQLTKDDIMPLLGMKVGPALKISDLIAQLKCKVNPGRARSHKTNKSPFL"}}, "note": "No constants are given. Whether binding was seen depends on the method and setting. Binding seen in cells or lysates may run through a third protein. These calls come from enrichment with a bait or labelling near it, and not all partners need be listed. No binding means not detected with the bait.", "data": [{"target": "GAGA factor (GAF) (Drosophila melanogaster (endogenous in embryos)) (UniProt Q08605)", "experiment": "affinity purification with mass spectrometry; GAF polyclonal antibody coupled to protein A Sepharose; 10 mg nuclear extract of 0-12 h embryos, HEMG-150, 2 h; washed with HEMG-500 plus 0.1% Nonidet P-40; eluted with 0.1 M glycine pH 2.5; triplicate; mock: protein A Sepharose with no antibody", "values": [{"molecule": "Acf1 (from UniProt Q9V9T4)", "binding": "binds"}, {"molecule": "Ash2 (from UniProt Q94545 1-556)", "binding": "binds"}, {"molecule": "Bap55 (from UniProt A1ZAS6)", "binding": "binds"}, {"molecule": "Bap60 (from UniProt Q9VYG2 1-515)", "binding": "binds"}, {"molecule": "Bap111 (from UniProt Q9W384)", "binding": "binds"}, {"molecule": "Bap170 (from UniProt A1Z6M0)", "binding": "binds"}, {"molecule": "Barr (from UniProt Q9VIP9)", "binding": "binds"}, {"molecule": "Brm (from UniProt P25439 1-1638)", "binding": "binds"}, {"molecule": "CG8924 (from UniProt E2QD86)", "binding": "binds"}, {"molecule": "Caf1-55/p55 (from UniProt Q24572 1-430)", "binding": "binds"}, {"molecule": "Cap-D2 (from UniProt Q9VAJ1)", "binding": "binds"}, {"molecule": "CtBP (from UniProt O46036 1-476)", "binding": "binds"}, {"molecule": "Dom (from UniProt Q9NDJ2 1-3198)", "binding": "binds"}, {"molecule": "Dre4 (from UniProt Q8IRG6 1-1083)", "binding": "no binding"}, {"molecule": "Dref (from UniProt Q94883)", "binding": "binds"}, {"molecule": "E(bx)/NURF301 (from UniProt Q9W0T1 1-2669)", "binding": "binds"}, {"molecule": "Fs(1)h (from UniProt P13709 1-2038)", "binding": "binds"}, {"molecule": "Glu (from UniProt Q9V3A7)", "binding": "binds"}, {"molecule": "HDAC1 (from UniProt Q94517 1-521)", "binding": "binds"}, {"molecule": "Hpr1 (from UniProt Q9VNI8)", "binding": "binds"}, {"molecule": "Iswi (from UniProt Q24368 1-1027)", "binding": "binds"}, {"molecule": "Kto (from UniProt Q9VW47 1-2531)", "binding": "binds"}, {"molecule": "Lid (from UniProt Q9VMJ7 1-1838)", "binding": "binds"}, {"molecule": "MEP-1 (from UniProt Q0E8J0)", "binding": "binds"}, {"molecule": "Map60/CP60 (from UniProt A1Z7W7)", "binding": "binds"}, {"molecule": "Mi-2 (from UniProt O97159 1-1982)", "binding": "binds"}, {"molecule": "Nipped-B (from UniProt Q7PLI2 1-2077)", "binding": "binds"}, {"molecule": "Osa (from UniProt Q8IN94 1-2716)", "binding": "binds"}, {"molecule": "Pds5 (from UniProt A1Z8S6)", "binding": "binds"}, {"molecule": "Ph-p (from UniProt P39769 1-1589)", "binding": "binds weakly"}, {"molecule": "Pho (from UniProt Q8ST83 1-520)", "binding": "binds weakly"}, {"molecule": "Polybromo (from UniProt Q9VC36)", "binding": "binds"}, {"molecule": "Ppl-87B (from UniProt P12982 1-302)", "binding": "binds"}, {"molecule": "Psc (from UniProt P35820 1-1601)", "binding": "binds weakly"}, {"molecule": "SA/SCC3 (from UniProt Q9VM62)", "binding": "binds"}, {"molecule": "SAYP (from UniProt Q9VWF2 1-2006)", "binding": "binds"}, {"molecule": "SMC1 (from UniProt Q9VCD8)", "binding": "binds"}, {"molecule": "SMC2 (from UniProt A1Z9V8)", "binding": "binds"}, {"molecule": "SMC3 (from UniProt Q9VXE9)", "binding": "binds"}, {"molecule": "Snr1 (from UniProt Q24090)", "binding": "binds"}, {"molecule": "Sxc/Ogt (from UniProt Q0E9P3)", "binding": "binds"}, {"molecule": "Zeste (from UniProt P09956)", "binding": "binds"}, {"molecule": "B1", "binding": "binds"}, {"molecule": "B2", "binding": "binds"}, {"molecule": "B3", "binding": "binds weakly"}]}]}
